B1: il2ra_site1_2b5i_sap_17_mot_HHH_b2_04291_000000093_0001_19_37_H_._HHH_b2_03534_af2_0001_0000100005_0000001_0_0001_af2pred_dldesign_0_af2pred (protein)
chain: SSSSSLDEKYARYLKKHVEKAIENKDKDLAYQLLENAAELAARTNDAELAALVERLKKIISSSSS
B2: il2ra_site1_1z92_sap_18_mot_HHH_b1_05862_af2_000000270_0001_22_38_H_._HHH_b2_05565_0001_0000300026_0000001_0_0001 (protein)
chain: SAEEAREIVHELLPPETREAFEKDLERTERFMGDPKNALFALINVLIQMFGDPRLEEAREIVRED
B3: il2ra_site1_2b5i_normal_mot_HHH_b2_04618_af2_000000067_0001_43_56_H_._HHH_b1_03627_af2_0001_0000200008_0000001_0_af2pred_dldesign_0_af2pred (protein)
chain: SSSSNRFLERVLAQLREELEEAKKENDKELLQKLKEQTKKLYERTKDPRLKELLEEIEKLLSSSS
B4: il2ra_site1_1z92_normal_mot_01209686ea234b34325f918445e6eade_0001_af2_000000154_0001_18_33_H_._HHH_b1_02824_0001_0000300044_0000001_0_af2pred_0001_af2pred (protein)
chain: SSSSDLEERAQEIVEELVRRFGLSEEEKRALEYAAEAAVRAGFSEKSIRLALEALVELLNSSSSS
B5: il2ra_site2_2erj_sap_12_mot_0ec3dbe5a60479548ca220575d6efbeb_0001_000000280_0001_35_49_H_._HHH_b1_04602_0001_0000300004_0000001_0_0001 (protein)
chain: SSSSDAEEEAEELYELVKEAVERGDVELASELLRLLLELAHEYRNEEVHRLAWEALRLNGSSSSS
B6: il2ra_site1_1z92_sap_25_mot_HEEHE_1462_000000005_0001_40_55_H_._9b27c49f4244f023ba89377d59a42b61_0001_0001_0000100008_0000001_0_0001 (protein)
chain: SSSSSREEKSAEWAIRLIESALRLNNEELLKLALRQLEMLVERIGDPELEQRLEELEELLSSSSS
B7: il2ra_site1_1z92_normal_mot_HHH_b2_06073_af2_000000110_0001_43_57_H_._HHH_b2_05950_0001_0000300036_0000001_0 (protein)
chain: SSSSSDVFELVDELFQRAARSKDQEERRELLEEAFEIAEKGNDERLLKEIERYLRMLEGSSSSSS
B8: il2ra_site2_2erj_sap_23_mot_6c2800a769814540b5b47941e710ff28_0001_000000197_0001_35_49_H_._HHH_b2_04229_0001_0000100001_0000001_0_0001 (protein)
chain: SSSSSEEYERVAELLARLIELLANGNPEEAEELAEELLRFVEELNDPLLRRFVEDALKAIKSSSS
B9: il2ra_site1_3nfp_normal_mot_HHH_b2_01582_af2_000000000_0001_1_16_H_._92a3150cbef6ae0ea5404c1e8ea5100d_0001_1_0001_0000100001_0000001_0 (protein)
chain: SLKVLKQAARFLGDPEVLEAVEVLEELKKDPRHREEVYELIERLLRLLAKDPEEARKLAEEILEK
B10: il2ra_site1_1z92_sap_15_mot_9053287a88fd35e5e7b7820c009b1930_0001_000000002_0001_34_47_H_._a237db91e5dae9a764afea8a79d812a9_0001_0001_0000100014_0000001_0_0001 (protein)
chain: SEEEELEEELEKAGVPPETIEAILRDLKRAEKLTGDPEWAAKAVAMVLRKWGDPEAARIVEEFIK
B11: il2ra_site1_2b5i_normal_mot_HHH_b2_00256_000000050_0001_19_35_H_._HHH_b2_00953_af2_0001_0000100007_0000001_0_af2pred_0001_af2pred (protein)
chain: SSSSSNEARYLIRVIFELFHRLGLSAEQAKELARLAAELLDRGVSEEEAEELLQELAKELSSSSS
B12: il2ra_site1_1z92_sap_19_mot_6c2800a769814540b5b47941e710ff28_0001_af2_000000005_0001_35_49_H_._HHH_b1_00427_0001_0000300019_0000001_0_0001_af2pred_0001_af2pred_ … (protein)
chain: SSSSDEEEELARRIVERLVEEYNLDEETRRALERDAENALKRGYSEHSIRRALENLARLMSSSSS
B13: il2ra_site2_3nfp_normal_mot_HHH_b1_05785_af2_000000002_0001_41_57_H_._HHH_b2_01971_0001_0000200009_0000001_0 (protein)
chain: SSSSSDEERLLELFLESLRQAREEGDEELAHDSVRYAIAAARLLNDEETLKELEEILKELSSSSS
B14: il2ra_site2_2erj_sap_12_mot_HHH_b1_00853_af2_000000249_0001_20_37_H_._HHH_b2_06246_af2_0001_0000300005_0000001_0_0001 (protein)
chain: SSSSSDDLEEAYELAVRLLRLLANRDPEEFEEVSRQLRELAERLQSDNLKEIIELMERQFSSSSS
B15: il2ra_site2_2erj_sap_34_mot_35d2dc24e2c4431f89e6f806b163ecf8_0001_af2_000000142_0001_35_50_H_._HHH_b1_08674_af2_0001_0000200006_0000001_0_0001 (protein)
chain: DVEELLEEAAELLKKGDPRALHVLFEALRAAAEEGDPELLKEIEKVMELLHENEEQAVELLERLG
B16: il2ra_site1_2b5i_sap_12_mot_HHH_b2_06557_000000121_0001_42_56_H_._HHH_b2_06964_0001_0000100004_0000001_0_0001_af2pred_0001_af2pred (protein)
chain: SSSSSEASEEAFELFREANELARNGDPEEARKVLEEALELAERGNSPNLVKSIRIALEQLKSSSS
B17: il2ra_site2_3nfp_sap_23_mot_HHH_b1_06158_af2_000000274_0001_1_17_H_._297f351de040020aa651d6b40cb4c2be_0001_1_af2_0001_0000100001_0000001_0_0001 (protein)
chain: SSSSSLAEELVEAHLALLEEALRQGDEESARRAIEIAEAVIEQLDNEELQELLEELKELLSSSSS
B18: il2ra_site1_3nfp_normal_mot_HHH_b2_02066_af2_000000034_0001_1_16_H_._HHH_b2_02769_af2_0001_0000200020_0000001_0_af2pred_0001_af2pred_swapped (protein)
chain: SSSSDEYEELRELVRQIRELRRKGDPRAEELVEEALRLAEELGSRVAALLLRRLEEHIEHDSSSS

Some of the results follow.

Experimental findings from PMC10163288 are described below.

The target of the assay is il2ra, P01589. The assay can be described thus: yeast display titration.
With B1, the “apparent Kd” value was “inactive: no binding seen”.
Consider B2, for which the “apparent Kd” value was “inactive: no binding seen”.
Then B3, with “inactive: no binding seen”; and B4, with “inactive: no binding seen”.
Then B5, with “inactive: no binding seen”; and B6, with “inactive: no binding seen”.
Then B7, with “inactive: no binding seen”.
On to B8, for which the “apparent Kd” value was “inactive: no binding seen”.
Turning to B9, the “apparent Kd” value was “inactive: no binding seen”.
The same measure for B10: “inactive: no binding seen”; for B11: “inactive: no binding seen”; for B12: “inactive: no binding seen”.
As for B13, the “apparent Kd” value is “inactive: no binding seen”.
In the case of B14, the “apparent Kd” value is “inactive: no binding seen”.
For the molecule B15, the “apparent Kd” value was “inactive: no binding seen”.
For B16, the “apparent Kd” value is “inactive: no binding seen”.
As to B17, the “apparent Kd” value was “inactive: no binding seen”.
Regarding B18, the “apparent Kd” value was “inactive: no binding seen”.
